PubChem BioAssay AID1259405 – NCATS | 2018

Test: 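Mouse-designed siRNAs used to find CHO productivity engineering targets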 (primary screen)
Cells: Chinese hamster CHO-K1 ovary cells with stable secreted eGFP expression
Knock-down reagent: single siRNA against mouse genes, 0.8 pmol siRNA per well (2 µl of 400 nM stock)
Time to read-out: 3 days
Read-out: 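Percent of the per-plate non-targeting control median for intracellular GFP per well by laser scanning cytometry and for cell viability by ATP luminescence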
Scale: GFP, % of control: higher = more GFP per well, higher productivity; viability (ATP), % of control: higher = more viable cells (more ATP)
Call rule: 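a knock-down is called active if GFP reaches 120% or more of non-targeting control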
In all, the deposit lists about 50,000 reagents; shown is a random part of them. Over the whole deposit, about 4,000 (8%) were called active. 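Mouse siRNA library applied to hamster cells; one well for each siRNA.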 Entries without a mark were called inactive. The numbers tell different reagents against one gene apart. Reagent sequences are not shown.

gene	reagent	GFP, % of control	viability (ATP), % of control
Pgcka1	1	99.8	95.2
Pgcka1	2	136 (active)	82.6
Pgcka1	3	85.4	71.5
Klhdc1	1	43.2	53.4
Klhdc1	2	55.9	62.2
Klhdc1	3	90.9	65.7
Ccdc163	1	52.6	66.8
Ccdc163	2	89.4	63
Ccdc163	3	88.2	84.1
Dcun1d5	1	80	79.9
Dcun1d5	2	71.9	58.2
Dcun1d5	3	87.6	73.9
Scap	1	127 (active)	110
Scap	2	28.9	48.8
Scap	3	53.2	66.7
Caps2	1	72	56.2
Caps2	2	99.4	89.3
Foxm1	1	84.6	81.6
Foxm1	2	78.2	58
Foxm1	3	99.8	98.8
Cnih4	1	118	97.1
Cnih4	2	167 (active)	102
Cnih4	3	69	61.9
Kng2	1	62.9	56.3
Kng2	2	47.7	45.6
Kng2	3	87.8	101
Psg17	1	40.4	56.6
Psg17	2	65.9	71.5
Psg17	3	78.4	106
Inpp5j	1	92.2	78.9
Inpp5j	2	75.3	67.8
Inpp5j	3	86.8	93.5
Serpinb9e	1	66.3	81.9
Serpinb9e	2	66.4	74.7
Serpinb9e	3	130 (active)	110
Zfp788	1	125 (active)	81.7
Zfp788	2	88.6	46.8
Zfp788	3	57.1	58.2
A730008H23Rik	1	43.3	49
A730008H23Rik	2	72.4	53.1
A730008H23Rik	3	61	82.3
Asb9	1	119	71.8
Asb9	2	56.1	64.2
Asb9	3	75.6	65.1
4933414I15Rik	1	90.1	86.2
4933414I15Rik	2	140 (active)	98.2
4933414I15Rik	3	122 (active)	117
Ccl17	1	81	108
Ccl17	2	77	85.6
A730020M07Rik	1	230 (active)	69.6
A730020M07Rik	2	67	56.2
A730020M07Rik	3	74.2	89.5
Mixl1	1	65.9	88.7
Mixl1	2	86.9	65.6
Mixl1	3	130 (active)	89.1
H2-M10.5	1	40.5	67.7
H2-M10.5	2	75.8	78.3
H2-M10.5	3	65.5	68.7
Plac9	1	53.1	69.8
Plac9	2	120 (active)	62.9
Plac9	3	111	82.7
Or8b49	1	106	104
Or8b49	2	126 (active)	88.7
Or8b49	3	85.4	66.8
Zbp1	1	69.8	53
Zbp1	2	84.7	49.4
Zbp1	3	99.6	118
Hnrnpll	1	112	125
Hnrnpll	2	65.6	92.6
Hnrnpll	3	89.7	98.6
Or4k51	1	80.9	72.4
Or4k51	2	99.4	82.4
Or4k51	3	93.1	89.7
Hdgfl3	1	79.5	50.9
Hdgfl3	2	74.8	60.5
Hdgfl3	3	69	50.3
Adcyap1r1	1	141 (active)	81.1
Adcyap1r1	2	116	99
Adcyap1r1	3	51	63.8
Wt1	1	98.1	85.5
Wt1	2	70	65.3
Wt1	3	80.8	69.3
Zc3hav1	1	26.6	31.4
Zc3hav1	2	90.5	89.9
Zc3hav1	3	111	108
Scnm1	1	86.9	64
Scnm1	2	123 (active)	32.3
Scnm1	3	95	84.9
Necab3	1	114	49
Necab3	2	58	71.5
Necab3	3	51.1	33.6
Gripap1	1	70.9	72.7
Gripap1	2	78.7	86.2
Gripap1	3	56.2	47.8
Il17rc	1	90.5	111
Il17rc	2	96.9	55.8
Il17rc	3	88.3	50.5
Padi2	1	79.9	77.5
Padi2	2	142 (active)	114
Padi2	3	56.7	48.2
Prelid3a	1	61.7	61
Prelid3a	2	44.1	83.5
Prelid3a	3	104	82.9
Elavl2	1	118	119
Elavl2	2	32.4	43.2
Elavl2	3	98.5	94.7
Pomk	1	120	106
Pomk	2	121 (active)	94.7
Pomk	3	163 (active)	145
